These are yes or no findings as the source states them, for the method shown. Some results given as binding are weak or reduced against the parent protein; the word gives no strength.
Legend:
[1] = molecular target: T1, human CD160 receptor (human) (UniProt O95971); assay: flow cytometry with PE tetramers, 37 C, 1 h
T1 sequence (GPI-anchored, looked up): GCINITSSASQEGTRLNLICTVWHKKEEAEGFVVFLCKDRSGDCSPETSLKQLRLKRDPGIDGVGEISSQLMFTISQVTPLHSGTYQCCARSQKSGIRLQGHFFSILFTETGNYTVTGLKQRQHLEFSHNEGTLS

[2] = molecular target: T1, human CD160 receptor (human); assay: flow cytometry with PE tetramers
[3] = molecular target: T1, human CD160 receptor (human); assay: radioreceptor assay: 125I-sHLA-G1 on HUVEC at 4 C, 2 h, unlabelled sHLA-G1 as competitor; the receptor on HUVEC is named CD160 later in the filing
[4] = molecular target: T1, human CD160 receptor (human); assay: tetramer staining and blocking of CL1-R2 on HUVEC, flow cytometry
[5] = molecular target: T1, human CD160 receptor (human); assay: figure legend title; tetramer staining and blocking of CL1-R2 on HUVEC
[6] = molecular target: T1, human CD160 receptor (human); assay: radioreceptor assay: 125I-sHLA-G1 on HUVEC at 4 C, unlabelled sHLA-G1 as competitor; the receptor on HUVEC is named CD160 later in the filing
[7] = molecular target: T1, human CD160 receptor (human); assay: pre-incubation of HUVEC with sHLA-G1, then CL1-R2 staining, flow cytometry
[8] = molecular target: T1, human CD160 receptor (human); assay: figure legend title; flow cytometry on HUVEC

binding [1] | binding [2] | binding [3] | binding [4] | binding [5] | binding [6] | binding [7] | binding [8] | Substance
binds | binds | – | – | – | – | – | – | HLA-G1 tetramer with self-peptide …, streptavidin-PE (from UniProt P17693 25-300; P61769 21-119) (peptide-MHC)
– | – | binds | binds | binds | binds | binds | binds | soluble HLA-G1 (sHLA-G1), purified recombinant (from UniProt P17693 25-319; P61769 21-119) (ligand)
